These are yes or no findings as the source states them, for the method shown. Binding seen in cells or lysates may run through a third protein. For some assays here: Binding can be weak; no strength is given.
Columns and labels:
[1] = target: eGFP-TGM4 D4-5 fusion (Heligmosomoides polygyrus); assay: co-IP; GFP-TRAP beads on lysates (10 mM Tris-HCl pH 7.5, 150 mM NaCl, 0.5 mM EDTA, 0.5% NP-40) of MFB-F11 or RAW264.7 cells transfected with eGFP-TGM fusions; 1 h at 4 °C; western blot for endogenous TβRI, TβRII, CD44
[2] = target: eGFP-TGM4 D1-3 fusion (Heligmosomoides polygyrus); assay: as above

B1: CD44, endogenous mouse (receptor, UniProt P15379 23-778)
chain: QIDLNVTCRYAGVFHVEKNGRYSISRTEAADLCQAFNSTLPTMDQMKLALSKGFETCRYGFIEGNVVIPRIHPNAICAANHTGVYILVTSNTSHYDTYCFNASAPPEEDCTSVTDLPNSFDGPVTITIVNRDGTRYSKKGEYRTHQEDIDASNIIDDDVSSGSTIEKSTPEGYILHTYLPTEQPTGDQDDSFFIRSTLATIASTVHSKSHAAAQKQNNWIWSWFGNSQSTTQTQEPTTSATTALMTTPETPPKRQEAQNWFSWLFQPSESKSHLHTTTKMPGTESNTNPTGWEPNEENEDETDTYPSFSGSGIDDDEDFISSTIATTPRVSARTEDNQDWTQWKPNHSNPEVLLQTTTRMADIDRISTSAHGENWTPEPQPPFNNHEYQDEEETPHATSTTPNSTAEAAATQQETWFQNGWQGKNPPTPSEDSHVTEGTTASAHNNHPSQRITTQSQEDVSWTDFFDPISHPMGQGHQTESKDTDSSHSTTLQPTAAPNTHLVEDLNRTGPLSVTTPQSHSQNFSTLHGEPEEDENYPTTSILPSSTKSSAKDARRGGSLPTDTTTSVEGYTFQYPDTMENGTLFPVTPAKTEVFGETEVTLATDSNVNVDGSLPGDRDSSKDSRGSSRTVTHGSELAGHSSANQDSGVTTTSGPMRRPQIPEWLIILASLLALALILAVCIAVNSRRRCGQKKKLVINGGNGTVEDRKPSELNGEASKSQEMVHLVNKEPSETPDQCMTADETRNLQSVDMKIGV
For B1, the binding [1] was “binds” and the binding [2] was “no binding”.

From paper PMC11723922
